Source: PubChem BioAssay AID1259286 (Sanger Institute, 2017)

- Aim: 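Kinome knock-downs lethal on their own or synergistic with anchor drugs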 (primary screen)
- Cells: NCI-H630 human colorectal cancer cells
- Reagents: siRNA pool against human genes
- Treatment: anchor drugs BYL719 at 1 µM, cetuximab at 5 µg/ml or trametinib at 10 nM, or DMSO vehicle alone; exposure time not given
- Read-out: 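Viability relative to non-targeting pool wells, averaged over replicates, with robust z-score for knock-down alone and a synergy score for each anchor drug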
- Direction: viability z-score, knock-down alone: higher = more viable cells, weaker knock-down effect
- Call rule: 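a gene is called essential when its knock-down-alone viability robust z-score is below -3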
- Meaning of the calls: active = essential when knocked down alone; inactive = not essential alone
In all, the deposit lists 794 reagents; shown is a random part of them. Of all reagents, 17 (2.1%) got an active call. 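Calls use knock-down alone only; synergy above 0.15 marked separately; viability seems capped at control level; exposure time not given.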 Not all columns of the deposit are shown. Reagent sequences are not shown. The record does not give: the amount of reagent, the time to read-out.

target gene	viability z-score, knock-down alone	activity call
OBSCN (GeneID 84033)	0.464	inactive
DGKA (GeneID 1606)	0.464	inactive
PRKACG (GeneID 5568)	0.464	inactive
IRAK3 (GeneID 11213)	-0.0163	inactive
RIOK3 (GeneID 8780)	0.464	inactive
ITK (GeneID 3702)	-2.07	inactive
CASP8 (GeneID 841)	0.464	inactive
UCK1 (GeneID 83549)	0.464	inactive
ITPKB (GeneID 3707)	0.339	inactive
STKLD1 (GeneID 169436)	0.269	inactive
CDC7 (GeneID 8317)	-1.57	inactive
JAK1 (GeneID 3716)	0.464	inactive
MASTL (GeneID 84930)	0.464	inactive
TK2 (GeneID 7084)	0.464	inactive
AURKB (GeneID 9212)	-3.23	active
HSPB8 (GeneID 26353)	-2.66	inactive
TAOK2 (GeneID 9344)	0.464	inactive
CDKN1A (GeneID 1026)	0.464	inactive
CDKN2C (GeneID 1031)	-2.35	inactive
MLKL (GeneID 197259)	0.464	inactive
NRAS (GeneID 4893)	0.464	inactive
PANK2 (GeneID 80025)	-0.575	inactive
PRKD1 (GeneID 5587)	0.464	inactive
ROR1 (GeneID 4919)	-0.404	inactive
TNIK (GeneID 23043)	0.464	inactive
PIK3R1 (GeneID 5295)	0.289	inactive
ALPK3 (GeneID 57538)	0.295	inactive
XYLB (GeneID 9942)	-1.35	inactive
DLG3 (GeneID 1741)	0.464	inactive
PCK1 (GeneID 5105)	-0.902	inactive
PRKX (GeneID 5613)	0.464	inactive
TSSK3 (GeneID 81629)	0.464	inactive
MPP1 (GeneID 4354)	-2.38	inactive
TRPM7 (GeneID 54822)	-0.168	inactive
CLSPN (GeneID 63967)	-0.466	inactive
PDK1 (GeneID 5163)	0.464	inactive
CDK13 (GeneID 8621)	0.464	inactive
TGFBR1 (GeneID 7046)	0.464	inactive
PRKG2 (GeneID 5593)	0.464	inactive
MGA (GeneID 23269)	0.277	inactive
MAP3K8 (GeneID 1326)	0.464	inactive
NRBP1 (GeneID 29959)	0.464	inactive
AK4 (GeneID 205)	-1.98	inactive
STK26 (GeneID 51765)	-0.694	inactive
TLK1 (GeneID 9874)	0.464	inactive
EPHB6 (GeneID 2051)	0.464	inactive
PAPSS2 (GeneID 9060)	0.131	inactive
LATS1 (GeneID 9113)	0.464	inactive
MAP4K4 (GeneID 9448)	-3.91	active
MAPK11 (GeneID 5600)	0.464	inactive

A run of entries of the results above, for reference:
target gene	viability z-score, knock-down alone	activity call
TK2 (GeneID 7084)	0.464	inactive
AURKB (GeneID 9212)	-3.23	active
HSPB8 (GeneID 26353)	-2.66	inactive
TAOK2 (GeneID 9344)	0.464	inactive
CDKN1A (GeneID 1026)	0.464	inactive
